# Library compounds against nucleic acid targets

Source: the ROBIN nucleic acid binder screens (doi:10.1002/anie.202211358).

Oligonucleotides screened, 5′ to 3′:
T1: PreQ1 riboswitch RNA pseudoknot, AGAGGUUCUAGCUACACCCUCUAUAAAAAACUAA. From B. subtilis. About 170 hits among about 24,000 compounds.
T2: SAM-II riboswitch RNA pseudoknot, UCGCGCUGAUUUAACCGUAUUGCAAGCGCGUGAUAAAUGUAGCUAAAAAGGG. About 200 hits among about 21,000 compounds.
T3: TPP riboswitch RNA three-way junction, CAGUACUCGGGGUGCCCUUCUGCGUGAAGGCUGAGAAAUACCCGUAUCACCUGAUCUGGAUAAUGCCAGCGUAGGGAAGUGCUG. About 160 hits among about 24,000 compounds.

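Each compound is printed as two spots on a slide made to bind it covalently, so it has no test concentration; the read-out is fluorescence of the bound, labelled oligonucleotide. The data file lists only calls. An earlier report of the laboratory on the PreQ1, TPP and SAM-II riboswitches (doi:10.1038/s41467-019-09493-3) used 1 µM RNA for 2 h and required a mean Z-score above 3 (spot signal-to-noise against the whole library), a score well above that on a control array, and duplicate spots agreeing (coefficient of variation under 100); it then also set aside compounds that hit other targets, which this list keeps. The cut-offs behind this list may differ. The calls come from the array alone, and fixing a compound to the slide can hide its binding.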 “hit” means called a hit, “no hit” means screened and not called a hit. The compounds are a random part of those screened. A target missing from an entry has no call listed here.

- Nc1cc2c(cc1C#CC(=O)c1ccccc1)C(=O)c1ccccc1C2=O | T1: no hit; T2: no hit; T3: no hit
- COc1ccc(NCC(=O)n2c(C)c(C)c3ccccc32)cc1OC | T1: no hit; T2: no hit; T3: no hit
- Cc1ccc(C(=O)c2sc3nc(C)ccc3c2N)cc1 | T1: no hit; T2: no hit; T3: no hit
- NC(=O)c1cc(N)ccc1Cl | T1: no hit; T2: no hit; T3: no hit
- O=C1C2C(c3ccccc3)C=CC(c3ccccc3)C2C(=O)N1CCCO (stereo not drawn) | T1: no hit; T2: no hit; T3: no hit
- COc1ccc(-c2ccc(C(=O)NCc3cc4n(n3)CCCNC4)o2)cc1 | T1: no hit; T2: no hit; T3: no hit
- CCN(CC)CC(O)CN1CCn2c3c(c4cc(C)ccc42)CCCC31 (stereo not drawn) | T1: no hit; T3: no hit
- Cc1ccc(SC2CCN(CC3CCNC3)CC2)cc1 (stereo not drawn) | T1: no hit; T2: no hit; T3: no hit
- CC1CC(Nc2ccccc2)c2ccccc2N1C(=O)c1ccccc1F (stereo not drawn) | T1: no hit; T2: no hit; T3: no hit
- COc1ccc2cc3c(N)nn(C(=O)c4ccc(F)cc4Cl)c3nc2c1 | T1: no hit; T2: no hit; T3: no hit
- Cc1cc(Nc2ccc(Cl)cc2)c2cccc(C)c2n1 | T1: no hit; T2: no hit; T3: no hit
- CC1(C)C(C(=O)N2CCN(Cc3ccc(F)cc3)C(CCO)C2)C1(C)C (stereo not drawn) | T1: no hit; T2: no hit; T3: no hit
- CCn1cc(-c2cc(-c3cnc(OC)nc3)c(C#N)c(N)n2)c2ccccc21 | T1: no hit; T2: no hit; T3: no hit
- N#CC1=C(N)OC2=C(C(=O)CCC2)C12C(=O)Nc1ccc(F)cc12 (stereo not drawn) | T1: no hit; T2: no hit; T3: no hit
- CCNc1nc(C)cc(N2CCN(S(=O)(=O)c3ccc(OC)c(C)c3C)CC2)n1 | T1: no hit; T3: no hit
- Nc1cccc(-c2cc(C(=O)O)c3cc(Br)ccc3n2)c1 | T1: no hit; T2: no hit; T3: no hit
- c1coc(CNCCCc2nc3ccccc3[nH]2)c1 | T1: no hit; T2: no hit; T3: no hit
- COc1ccccc1CNc1ccc2c(c1)ncn2C(C)(C)C | T1: no hit; T2: no hit; T3: no hit
- O=C(CCc1cc2n(n1)CCCNC2)NCc1ccc2sccc2c1 | T1: no hit; T2: no hit; T3: no hit
- CCN(CC)C(=S)SSC(=S)N(CC)CC | T1: no hit; T2: no hit; T3: no hit
- CCc1ccc(NC(=O)c2nnn(Cc3cc(C)ccc3C)c2N)cc1 | T1: no hit; T2: no hit; T3: no hit
- O=C(Nc1nc2ccccc2n1CCN1CCOCC1)c1cccc([N+](=O)[O-])c1 | T1: no hit; T2: no hit; T3: no hit
- COc1cc(CCC(C)NCc2n[nH]c3c2CCC3)ccc1O (stereo not drawn) | T1: no hit; T2: no hit; T3: no hit
- CSc1ccc(C2C(C#N)=C(N)Oc3c2c(=O)n(C)c2ccccc32)cc1 (stereo not drawn) | T1: no hit; T2: no hit; T3: no hit
- O=C(O)c1ccc(C2CCCN(C(=O)C3(CO)CC3)C2)cc1 (stereo not drawn) | T1: no hit; T2: no hit; T3: no hit
- O=C(O)C1CC2(CCNCC2)CN1C(=O)C1(c2ccc(Cl)cc2)CCC1 (stereo not drawn) | T1: no hit; T2: no hit; T3: no hit
- Cc1ccccc1Nc1c(-c2ccc(O)cc2)nc2ncccn12 | T1: no hit; T2: no hit; T3: no hit
- CCOc1ccc(NC(=O)c2nccnc2CO)cc1 | T1: no hit; T2: no hit; T3: no hit
- Cc1ccc(N2CC(=O)C(c3nc4ccc(C)cc4[nH]3)=C2N)cc1 | T1: no hit; T3: no hit
- NC1=NC(c2ccccc2)NC(Nc2ccccc2)=N1 (stereo not drawn) | T1: no hit; T2: no hit; T3: no hit
- c1ccc2c(c1)nc(NCCCN1CCCCC1)n1nc(-c3ccncc3)nc21 | T1: no hit; T3: no hit
- O=C(NC1CC1)C1CNCCN1C(=O)c1cccc(Oc2ccccc2)c1 (stereo not drawn) | T1: no hit; T2: no hit; T3: no hit
- COc1cc(CNCCSc2nnnn2C)ccc1OCC(=O)N1CCc2ccccc21.Cl | T1: no hit; T2: no hit; T3: no hit
- COc1ccc(CCN2C(=O)CC(NCCc3ccc(S(N)(=O)=O)cc3)C2=O)cc1OC (stereo not drawn) | T1: no hit; T2: no hit; T3: no hit
- CCC(CO)n1cc2c(c1-c1ccccc1)c(=O)n(C)c(=O)n2C (stereo not drawn) | T1: no hit; T2: no hit; T3: no hit
- Cc1nc(CN2CCN(C(=O)C3CC4(CCNCC4)CN3)CC2)no1 (stereo not drawn) | T1: no hit; T2: no hit; T3: no hit
- O=C(O)CN1C(=O)CN=C(c2ccccn2)c2cc(Cl)ccc21 | T1: no hit; T2: no hit; T3: no hit
- COc1ccc(-c2ccc3c(N)c(C(=O)c4ccc5c(c4)OCCO5)sc3n2)cc1 | T1: no hit; T2: no hit; T3: no hit
- CCOC(=O)c1c(N)sc(C(=O)Nc2cccc(Cl)c2C)c1C | T1: no hit; T2: no hit; T3: no hit
- Nc1nccc(N2C[C@H](NC(=O)CC3CCCC3)[C@@H](C3CC3)C2)n1 | T1: no hit; T2: no hit; T3: no hit

Some entries from above, unchanged:

SMILES,T1,T2,T3
O=C(O)CN1C(=O)CN=C(c2ccccn2)c2cc(Cl)ccc21,no hit,no hit,no hit
COc1ccc2cc3c(N)nn(C(=O)c4ccc(F)cc4Cl)c3nc2c1,no hit,no hit,no hit
COc1cc(CNCCSc2nnnn2C)ccc1OCC(=O)N1CCc2ccccc21.Cl,no hit,no hit,no hit
Nc1cccc(-c2cc(C(=O)O)c3cc(Br)ccc3n2)c1,no hit,no hit,no hit